Reference: the supplement of paper PMC3334620
Over roughly 33,000 sequences, “E-score (-0.5 to 0.5)” has its median near -0.016; the highest 2% begin near 0.3. Some of the results follow.

The sequences below were run against T1, Yer184c (UniProt P39961) (assay: PBM E-score (8-mer binding enrichment) (E-score (-0.5 to 0.5)); higher = stronger / more preferred TF binding). Conditions: protein concentration: 100 nM; construct: GST-full length.
T1 sequence: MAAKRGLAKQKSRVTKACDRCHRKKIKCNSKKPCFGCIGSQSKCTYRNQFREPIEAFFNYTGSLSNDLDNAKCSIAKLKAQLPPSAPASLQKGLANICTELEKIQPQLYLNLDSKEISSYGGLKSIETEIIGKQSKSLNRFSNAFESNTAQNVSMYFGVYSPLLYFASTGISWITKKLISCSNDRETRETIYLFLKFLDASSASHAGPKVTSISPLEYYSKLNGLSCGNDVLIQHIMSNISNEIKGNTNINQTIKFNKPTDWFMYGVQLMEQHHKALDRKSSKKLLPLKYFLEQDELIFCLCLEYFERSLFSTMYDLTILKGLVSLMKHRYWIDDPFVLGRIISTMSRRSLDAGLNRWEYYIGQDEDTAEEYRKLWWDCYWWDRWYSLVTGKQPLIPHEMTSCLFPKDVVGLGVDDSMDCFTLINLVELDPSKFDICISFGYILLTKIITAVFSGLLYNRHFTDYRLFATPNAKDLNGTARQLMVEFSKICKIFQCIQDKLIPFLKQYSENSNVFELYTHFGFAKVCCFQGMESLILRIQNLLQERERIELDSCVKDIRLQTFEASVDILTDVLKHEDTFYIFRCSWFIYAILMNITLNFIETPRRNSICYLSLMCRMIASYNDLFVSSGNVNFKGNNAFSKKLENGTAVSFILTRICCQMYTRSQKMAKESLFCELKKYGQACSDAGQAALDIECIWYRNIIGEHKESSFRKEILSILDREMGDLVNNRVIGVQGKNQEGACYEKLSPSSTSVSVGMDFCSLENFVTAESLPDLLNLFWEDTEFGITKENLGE
In short: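 Full-length yeast transcription factors or their DNA-binding domains, GST-tagged and expressed with PURExpress, were applied at about 100-200 nM to universal all-10-mer Agilent arrays. These arrays had been made double-stranded by primer extension on fresh or once-stripped slides. Detection used fluorescent anti-GST, normalisation used masliner, and E-scores for ungapped eight-base words pooled with reverse complements came from the Universal PBM Analysis Suite.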

First: GAACTTCA
Second: GAGATAGC
The “PBM E-score” value of the first is higher: 0.0887 for the first, -0.138 for the second.

First: AGTGCCGA
Second: CAGAGTTC
The “PBM E-score” value of the first is higher: 0.333 for the first, -0.0706 for the second.

Going from CCCGCTAG to CGCCTCAC, the “PBM E-score” value rises from -0.0626 to 0.0992.

Compared with GCTAAAAC, ATTAGGGC is lower in “PBM E-score” value: 0.0712 for the first, -0.0844 for the second.

Going from AATATCCC to CAAATGCG, the “PBM E-score” value rises from -0.0444 to 0.00593.

Going from ATTGAACC to AGCCGCAC, the “PBM E-score” value rises from -0.00854 to 0.0503.

Going from AACGTCAG to CATCGTTC, the “PBM E-score” value rises from -0.26 to 0.077.

First: AACGCTGT
Second: TGAGGGCA
The “PBM E-score” value of the first is higher: -0.0805 for the first, -0.241 for the second.

First: GGGTCAAC
Second: ACATCTAC
The “PBM E-score” value of the first is lower: 0.0162 for the first, 0.131 for the second.

Going from GGGTTCGA to GCAGTTAA, the “PBM E-score” value rises from -0.105 to -0.1.

Going from TCCTACCA to ATTCCTTG, the “PBM E-score” value rises from -0.156 to -0.0558.

Going from GAAGGAAA to AACCACTT, the “PBM E-score” value falls from 0.0723 to -0.00261.

Compared with AGCTTCCC, TGCTACAA is higher in “PBM E-score” value: -0.242 for the first, 0.179 for the second.

Compared with CCCCTCAG, AACCTGGA is higher in “PBM E-score” value: -0.364 for the first, -0.0614 for the second.

Going from CATACAAC to CCGGATTC, the “PBM E-score” value rises from 0.00099 to 0.33.

Going from CTCCTACA to ATGCTCAC, the “PBM E-score” value rises from -0.129 to -0.123.

Going from CCTTCGCC to ACATCTCC, the “PBM E-score” value rises from -0.234 to 0.128.

First: ATTCGCGG
Second: AAGTCTAA
The “PBM E-score” value of the first is higher: 0.238 for the first, -0.093 for the second.

First: CAATTTAG
Second: TGTAGAAA
The “PBM E-score” value of the first is higher: 0.0966 for the first, -0.00609 for the second.

Compared with CGGGTCGC, TAGGTAAA is lower in “PBM E-score” value: 0.0996 for the first, -0.00711 for the second.

First: TCTCATAA
Second: AACAATAT
The “PBM E-score” value of the first is lower: 0.0404 for the first, 0.352 for the second.

Going from AGGGGAGC to CACCGGAG, the “PBM E-score” value rises from -0.294 to 0.173.

First: ACAAACCC
Second: GGACGGCC
The “PBM E-score” value of the first is higher: 0.0283 for the first, -0.00088 for the second.

First: CTAATTAA
Second: CTTAATGC
The “PBM E-score” value of the first is higher: 0.0794 for the first, 0.0292 for the second.

Going from AAACAATT to AAACGGTG, the “PBM E-score” value falls from 0.154 to 0.00684.

First: TACGCCCA
Second: CGGTATAG
The “PBM E-score” value of the first is lower: -0.109 for the first, -0.044 for the second.

First: CATCCTTC
Second: AGTACACG
The “PBM E-score” value of the first is lower: -0.145 for the first, 0.00971 for the second.

Going from GCTGATTA to AGAAACGG, the “PBM E-score” value falls from 0.217 to 0.199.

Going from GACGCGTA to GGTAACAA, the “PBM E-score” value rises from -0.0871 to 0.246.

First: CATACTAC
Second: AAGTTGTC
The “PBM E-score” value of the first is lower: 0.0142 for the first, 0.142 for the second.

First: AGTCGCCG
Second: CAGCTCGA
The “PBM E-score” value of the first is higher: 0.154 for the first, -0.114 for the second.

Compared with AAAATTCT, GAAATCAC is higher in “PBM E-score” value: 0.0787 for the first, 0.256 for the second.

Going from CTGTTCCC to CGGGGATC, the “PBM E-score” value rises from -0.122 to 0.0365.

Going from AATCATAA to TAAGTGCA, the “PBM E-score” value falls from 0.184 to 0.00668.

Going from ATGTGGTC to CCGCTACC, the “PBM E-score” value rises from -0.167 to 0.0517.

Going from AGACACTA to ACCCAAAT, the “PBM E-score” value falls from 0.2 to -0.00836.

Compared with GATAGGGA, GGATGCTA is higher in “PBM E-score” value: -0.179 for the first, -0.0651 for the second.

First: ATGTCCCA
Second: ATTCCAAG
The “PBM E-score” value of the first is lower: -0.24 for the first, 0.0923 for the second.

Compared with TACCTGCA, CACTCGGA is higher in “PBM E-score” value: -0.0159 for the first, 0.294 for the second.

First: ACCCCGCT
Second: GATAGATC
The “PBM E-score” value of the first is lower: -0.094 for the first, 0.0513 for the second.

Compared with GAGAAAGC, CCAGTTGA is lower in “PBM E-score” value: 0.0414 for the first, -0.125 for the second.

Compared with ACTCCTGA, AACCACGT is lower in “PBM E-score” value: -0.085 for the first, -0.148 for the second.

First: ATAATTTC
Second: GCTCCTCA
The “PBM E-score” value of the first is higher: 0.141 for the first, -0.175 for the second.

Going from AGTCAGTA to GCCAAACC, the “PBM E-score” value falls from 0.0215 to -0.0969.

Compared with GTGAGACA, ATCCTATC is higher in “PBM E-score” value: -0.13 for the first, -0.0475 for the second.

Compared with ATAGGAAA, AGTCCTTC is lower in “PBM E-score” value: 0.174 for the first, -0.202 for the second.

Going from CCGAAGAA to ACGAACCC, the “PBM E-score” value falls from 0.345 to -0.154.

Going from TATACTCA to GCCGGCCA, the “PBM E-score” value rises from 0.087 to 0.348.

First: ACTCAACC
Second: GAGCTAAC
The “PBM E-score” value of the first is higher: 0.0685 for the first, 0.0495 for the second.

Compared with AGTCAGTC, AATTCCGG is higher in “PBM E-score” value: -0.337 for the first, 0.387 for the second.

First: ACCCCAAT
Second: CGATGCCG
The “PBM E-score” value of the first is lower: -0.272 for the first, 0.234 for the second.

Going from CCCATCCA to CAAAGCAA, the “PBM E-score” value rises from -0.0987 to 0.197.

Compared with CGAGCGGC, CAAGCTGC is lower in “PBM E-score” value: 0.279 for the first, 0.00448 for the second.

First: CCAAGGAC
Second: CAATAACA
The “PBM E-score” value of the first is higher: -0.0257 for the first, -0.0893 for the second.

First: AGTGCTAC
Second: AGAATTGC
The “PBM E-score” value of the first is lower: -0.226 for the first, -0.134 for the second.

First: TGAGCAAA
Second: AGAACGCA
The “PBM E-score” value of the first is higher: 0.0568 for the first, -0.0916 for the second.

Compared with TCGATCAA, CTCGCGTC is lower in “PBM E-score” value: 0.0787 for the first, -0.19 for the second.

Compared with CAATATAC, AGTTGACA is higher in “PBM E-score” value: -0.0255 for the first, 0.0221 for the second.

First: ACCGCATA
Second: CCGGCGTC
The “PBM E-score” value of the first is lower: 0.147 for the first, 0.271 for the second.

Compared with ACACCGAT, GCTCATCA is higher in “PBM E-score” value: -0.0483 for the first, -0.0178 for the second.

First: CCTACATC
Second: ACAGACAC
The “PBM E-score” value of the first is lower: -0.0564 for the first, 0.0795 for the second.

First: GCCATCCC
Second: CGTGCTTA
The “PBM E-score” value of the first is lower: -0.0907 for the first, 0.106 for the second.

Compared with ACTATTCT, TTAGATAA is higher in “PBM E-score” value: -0.0239 for the first, 0.0522 for the second.

First: CGTGCATA
Second: ATGGTCCA
The “PBM E-score” value of the first is higher: -0.0313 for the first, -0.0752 for the second.

Compared with ATAAGGTG, GACATCGC is lower in “PBM E-score” value: 0.184 for the first, -0.0693 for the second.

First: TCGGACAA
Second: GAATTATC
The “PBM E-score” value of the first is higher: 0.378 for the first, 0.0532 for the second.

First: CCCCATCC
Second: CACAAAAC
The “PBM E-score” value of the first is lower: -0.106 for the first, 0.105 for the second.

First: CTCGTATC
Second: AATCACGA
The “PBM E-score” value of the first is higher: 0.00092 for the first, -0.0544 for the second.

Going from CGGTTTCC to CAACAGTC, the “PBM E-score” value falls from 0.298 to 0.0214.

Going from CCCTAGGA to AGGTACAT, the “PBM E-score” value falls from -0.15 to -0.323.

Compared with TCTGTCAA, ATGTCCGC is lower in “PBM E-score” value: 0.0885 for the first, -0.0241 for the second.

Going from CTGTCTGA to GGTTAGAA, the “PBM E-score” value falls from -0.139 to -0.166.

First: TACTAGAA
Second: ATCTCGTA
The “PBM E-score” value of the first is higher: 0.0468 for the first, -0.0757 for the second.

Going from AACGGAGT to ACGTAAGC, the “PBM E-score” value falls from 0.312 to -0.177.

Going from GCTAGCTA to CGAGGTGC, the “PBM E-score” value rises from -0.0213 to 0.148.

Compared with GTTGCGTA, CGAAATAC is higher in “PBM E-score” value: 0.134 for the first, 0.185 for the second.

Going from AAGCTATA to GGCTCTAA, the “PBM E-score” value falls from 0.15 to 0.0329.

First: AGCAAATA
Second: CAAGGGTC
The “PBM E-score” value of the first is higher: 0.0468 for the first, -0.0734 for the second.

Compared with CGTAACGC, CCCGCTTA is lower in “PBM E-score” value: 0.101 for the first, -0.187 for the second.

First: GCAGCTCC
Second: AGGTCAAG
The “PBM E-score” value of the first is lower: -0.189 for the first, -0.0601 for the second.

Compared with CAGCCATG, GGTATGAA is higher in “PBM E-score” value: -0.329 for the first, 0.0476 for the second.

Compared with GGGTTGCA, AAGATTGC is higher in “PBM E-score” value: -0.136 for the first, 0.0377 for the second.

First: CTGCGTGA
Second: CGGTATTC
The “PBM E-score” value of the first is lower: -0.123 for the first, 0.226 for the second.

Going from AAAGTTAT to CCAGATAG, the “PBM E-score” value falls from 0.134 to 0.00026.

Compared with ATGGAGAC, ATTATATC is higher in “PBM E-score” value: -0.176 for the first, 0.0923 for the second.

First: GAGCCCAA
Second: CATGCACC
The “PBM E-score” value of the first is higher: -0.103 for the first, -0.206 for the second.
